Assay results reported in PMC6461442.
These are yes or no findings as the source states them, for the method shown. In cells and extracts the contact can be indirect. These calls come from enrichment with a bait or labelling near it, and not all partners need be listed. A no says only that the protein was not detected with the bait.

What was measured:
Chm7-GFP (S. cerevisiae) [1] = assay: affinity purification with mass spectrometry; Chm7-GFP captured from extracts of vps4Δpom152Δ cells on GFP-nanobody magnetic beads, 1 hr 4°C, 400 mM trisodium citrate pH 8, 0.5% n-dodecyl β-D-maltoside; LC-MS/MS against no-GFP control, one replicate
Chm7-GFP (S. cerevisiae) [2] = assay: affinity purification with mass spectrometry; GFP fusion captured from extracts of otherwise wildtype cells on GFP-nanobody magnetic beads, 1 hr 4°C, 400 mM trisodium citrate pH 8, 0.5% n-dodecyl β-D-maltoside; LC-MS/MS against no-GFP control

binding (Chm7-GFP (S. cerevisiae) [1])	binding (Chm7-GFP (S. cerevisiae) [2])	Binder
binds	–	Snf7 (protein, UniProt P39929 1-240) MWSSLFGWTSSNAKNKESPTKAIVRLREHINLLSKKQSHLRTQITNQENEARIFLTKGNKVMAKNALKKKKTIEQLLSKVEGTMESMEQQLFSIESANLNLETMRAMQEGAKAMKTIHSGLDIDKVDETMDEIREQVELGDEISDAISRPLITGANEVDEDELDEELDMLAQENANQETSKIVNNNVNAAPISENKVSLPSVPSNKIKQSENSVKDGEEEEDEEDEDEKALRELQAEMGL
binds	–	Nur1 (protein, UniProt Q12066 1-484) MGSNDLINEAYDDSEVVGEERESKSAWMKRWYQLLTSPLDLQLVINEKLEMINWDAYAKSLAKPLGNFLTILFFIIRLLQDNLIKPNYYKLNVKSGAFDLSKSNKLKEFDYLWEISSSFQNNNQFYAFQSWYFVTLRFLNNLFRFTIFILLSLNLYVSCKFMFGYFKTYNLFHLKKEFNSPNLTKHNLKDLSKEYYEDIYKQSLWSMLKHFFRGSRDDGPHVNQNEDEIFFQLRKWIPTNFMINLFVSFSPTAIVFLSFSDVSFTSAIAIVFHQYILDYIITKRFQRSVDDDLILSSAALQEYEDKHIMARINQCSNIDTLSSAMGTRSKTPRIFTTHSLCGEEIREVYNYEKREFEALPKMTESVPGSRETRIKDYGGISQVSDHQSHPIGFHYSPRMSPYYRDKVLDNNLAQSSSNENLEKGGAYLPNQDQNRPSKSLSPLRKTPLSARQKRFEGSEFNVLNKNDINSILRSPKKKKNYHKR
binds	–	Heh1 (protein, UniProt Q03707 1-834) MNSDLEYLEDGFDPNSMKVATLRRILVENNVDFPSNARKNALVGLFDEKVKPQIPQLRKMYLNVRPSDEGIVKMDRPSSSPSIASPRRSRRARREKSASPMAKQFKKNRILDDVSNDDDDDDDDDDDNDKKDDPLIVPSGTDTDEVDDEEDDVITSSSNKSDTNDFQQNSDTRKKRKDPDSDDWSESNSKENKIDNKHLNLLSSDSEIEQDYQKAKKRKTSDLNQEHGNGSAILGKLSVKTPIKNTNRKPVSMDNFNDSLTSSGTENDPFVPNIRHNPKELGTANGTGHSTPLSKLKVSASFADKLPQKEVPSTILVPEVEQQEPSQSERTPSLFSSEGSGSESEAPLLPEITTPGPHQPMGNTSNNVVEMIDTDSSNLVSDEDEVLVPTRIETPQLPTEKDVEKCEARVQELQEEVNEQLEHENGSEFDVKQGSGKVGNRHKFKRALKFLSKSLLALFLFCIFIVIPLLFGLWYREQRLLIGYCGHEVPSHRVSGNSFEFIQKLDNLLQDYRPKCIPCPPNGICYPYLKLKCKPDYKLAPSRLDFLEIIPAQGKCVKDDKKQQLVSEVVEKSLEFLRAKNAQISCGDGKDDIESGMTEDALYQIFNEARAPWIRDDEFEDLWIQVIKDLTEEPEILWRQLSPTDNNIGGNSNNIIKTNDVPRQKRHLPEKFISKTRNFRSTSKKYIGMKCRFEREIYQTYKKFQRPIWLMFLLIVISKVIEIKLKNYYRKKARIEELVTQTMEKLKFQKIKSMSDPKENAYLSIVQLRDIFLSDIVDLKYKNQLWSEVVKYLEHNNSNIKSNLTEIRGEIMKCWEWIGPMELNEPKDSAENKI
no binding	no binding	Heh2 (protein, UniProt Q03281 1-663) MDHRNLDPKTLKVSQLRRVLVENDVAFPANARKPVLVKLFEEKVRQRLQSSPEASKVRTSIQKVVKSGAKNADRKKTLKSKKLESSSSESKTVKDENVETNKRKREQISTDNEAKMQIQEEKSPKKKRKKRSSKANKPPESPPQSKSDGKATSADLTSELETVEELHKKDSSDDKPRVKELPKPELPNLKVSNEFLAQLNKELASAATENYDHSIKSTDLSSIRIETEEPVGPSTGAETRNESEVMENINLEVQPEVKEAKEELTKISETFDNQDEEDTSRLSSKKNIRSPKGRTRHFIANKTKRGIDIMKPFIAHLFIWLWNGAIFLSIICPILFGLWYREQRIQVGYCGHEKPLKSLAISAFPQTERVDSVLQAYRPNCLECPEHGICSSFMNVECEPGYEPKSSILETYGIIPFPKYCAKDESKEKEVDELVWKVNEYLKKKNAQHECGEGENLFESGETETKLYDIFSHSRPSWESQREFNDHWKNVLEILKKKDDIIWLPLDFETNGKREKSKSNNTNYIYRSTSKKWVTLQCHLEGDIQEYITKYGGSLFITLGVLFLIKKIQSTLDNYVQGEQIIEKLVKEAIDKLKDVKKNKGEEPFLTTVQLRATLLSDIPNIKEQNNLWAQTKEKIMKEQSENIELYLLEENGEIMTCWEWKE
